The values below come from PubChem BioAssay AID1347423 (Functional Genomics Laboratory (NCATS/FGL), 2020).

Screen size: about 52,000 sequences; about 210 (0.4%) were called active.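 Rule for the calls: active = gene whose silencing raises cell survival under the drug, median off-target-corrected z-score across its silencing RNAs 2 or more; inactive = the rest.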 The list shows a part of the results.

A short description of the experiment: Resistance to Poly (ADP-Ribose) Polymerase inhibitor: Gene Identification via Genome-wide siRNA Screen. The settings on record: mouse BRCA2 R2336H ES cells, olaparib, CellTiter-Glo viability; stronger effect = higher value. The method, boiled down:
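Genome-wide siRNA screen (3 siRNAs/gene, 20 nM) in mouse ES cells carrying hypomorphic BRCA2 R2336H; olaparib 500 nM added 48 h post-transfection, CellTiter-Glo viability 72 h later. Normalized to plate-median negative control; MAD z-scores, gene median, seed-adjusted.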
In general terms: ATP-based viability assays read luminescence as a measure of living cells.
GGUGUUUUUUAUCAGUAUGTT against Tsrc1: the z-score was inactive: -0.236.

On to “GGUGUUUUUGAUGAGAGUGTT against 1110055N21Rik”, for which the z-score is inactive: 0.656. The figure for CCUUCAUUGUGAUUGACAUTT against Ptpn11 is inactive: 0.909. The same measure for GGACAGAUCUUUUUGGUUUTT against Olfr295: inactive: -0.163; for “GGAAUAUGGAAGGAAGAGUTT against E130311K13”: inactive: -1.6. The same measure for CCACAUAUUUAUCUCCCUGTT against Mrpl33: inactive: -0.129; for GGCAAAGAUCAAGACUGUGTT against Rbbp1: inactive: -1.09; for CCGGCACUAUGAGAAGAAGTT against Lims2: inactive: -1.88. As to “GCACGCUAAGUAACGAAAGTT against 1300013B24Rik”, the z-score was inactive: -1.46. The figure for GGAUAUCUGAGACAGGUUUTT against Arf4 is inactive: -1.39.

For GGGCAUUGAUCACAGUGUATT against Bcl3, the z-score was inactive: 1.33. The same measure for GGAAACAAGGUCUCUGUUUTT against Eva1: inactive: 0.406. The figure for CGACCAUUCCUUUGAGUUATT against Spg3a is inactive: -0.134. Take GGAGAACUUCUGGAGCACCTT against Clecsf10: the z-score was inactive: -0.282. Consider GAGAACAAGCCUAAGCCCATT against V1rb5, for which the z-score is inactive: -0.864.

As for “CAACAUCUAAACCCAAGAGTT against 1700010D01Rik”, the z-score was inactive: -2.45. The figure for GGUGCUUAUACUUCUUUGUTT against Sgcz is inactive: -0.857. The same measure for CCGACUCCAGUUGAAUGUUTT against Tgif2: inactive: -1.25. The figure for CGUGCAACAAGACAUCUAATT against Wnt4 is inactive: 0.436. “GGUGAUGCUAAAUUCUGAUTT against 2610205H19Rik”: the z-score was inactive: 0.915.

Regarding GGAGAUCCUAGAAACCAUCTT against Pex6, the z-score is inactive: -0.636. The figure for “GGUCUGACCAUGAUCAUAATT against D230037D09Rik” is inactive: -1.7. The figure for GGCACGUAUGUGGUAGACATT against Zdhhc7 is inactive: 0.514; for GGCUGCAUGAUUUAUAGAGTT against Il18 it is inactive: -0.198. The same measure for “GGCGUGUGUAAUAAUUUCCTT against D14Ertd500e”: inactive: -1.21. In the case of GGACUAGCAUUCAUGUUCCTT against Zfy2, the z-score is inactive: 0.374. The figure for “GCUAAGCUGGAUCCAUAAUTT against A430060F13Rik” is inactive: 0.339; for GGACCAAGUGGAAGAAGCATT against Nkx1-2 it is inactive: -0.904; for GGUACUAGAUGACAAAAACTT against Gtl3 it is inactive: -0.801.
